Measurements reported in PMC12397098, “3-Monothiopomalidomide, a new immunomodulatory imide drug (IMiD), blunts inflammation and mitigates ischemic stroke in the rat” (GeroScience, 2025).
Where two headings read alike, the source gives them in different places.

How the values were obtained:
[1] = Sprague Dawley, rat, microsomes, 1 h, 1 μM
[2] = human, microsomes, 1 h, 1 μM
in vitro [3] = conditions: Sprague Dawley, rat, microsomes
in vitro [4] = conditions: human, microsomes

SMILES: CCCNCC(O)COc1ccccc1C(=O)CCc1ccccc1 (stereo not shown) [Propafenone, propafenone]
- Remaining (NCF = 60 min) [1]: 107.9%
- Remaining (T = 60 min) [1]: 0.1%
- Remaining (NCF = 60 min) [2]: 108.7%
- Remaining (T = 60 min) [2]: 1.5%
- CLint scaled at 1 μM (in vitro [3]): 620 mL/min/kg
- microsomal CLint at 1 μM (in vitro [3]): 344 µL/min/mg
- CLint scaled at 1 μM (in vitro [4]): 118 mL/min/kg
